Measured values from patent publication US20160017011A1, “PHF20 AND JMJD3 COMPOSITIONS AND METHODS OF USE IN CANCER IMMUNOTHERAPY” (priority 2013, published 2016).
At least one structure is not confirmed: it was looked up by name or label, or the drawing left a doubt.

Tested on: PHF20 expression in ESCs
Test: PHF20 expression in ESCs after LIF withdrawal and retinoic acid addition (RT-PCR, western blot)
Type: cell-based
Conditions: withdrawal of LIF and addition of retinoic acid in the culture medium

Compound: CC1=C(/C=C/C(C)=C/C=C/C(C)=C/C(=O)O)C(C)(C)CCC1 [retinoic acid]
- PHF20 expression in ESCs: markedly reduced
